These are yes or no findings as the source states them, for the method shown. In cells and extracts the contact can be indirect. A yes stands for co-enrichment or nearness to the bait. Other partners may have been found. No binding means not detected with the bait. Where a sequence is shown, tags or fusion partners need not be part of it.

Sequences of proteins named here, by UniProt entry; tags and fusion partners are left off. Residues count along the entry.
UniProt P25705, residues 44-553: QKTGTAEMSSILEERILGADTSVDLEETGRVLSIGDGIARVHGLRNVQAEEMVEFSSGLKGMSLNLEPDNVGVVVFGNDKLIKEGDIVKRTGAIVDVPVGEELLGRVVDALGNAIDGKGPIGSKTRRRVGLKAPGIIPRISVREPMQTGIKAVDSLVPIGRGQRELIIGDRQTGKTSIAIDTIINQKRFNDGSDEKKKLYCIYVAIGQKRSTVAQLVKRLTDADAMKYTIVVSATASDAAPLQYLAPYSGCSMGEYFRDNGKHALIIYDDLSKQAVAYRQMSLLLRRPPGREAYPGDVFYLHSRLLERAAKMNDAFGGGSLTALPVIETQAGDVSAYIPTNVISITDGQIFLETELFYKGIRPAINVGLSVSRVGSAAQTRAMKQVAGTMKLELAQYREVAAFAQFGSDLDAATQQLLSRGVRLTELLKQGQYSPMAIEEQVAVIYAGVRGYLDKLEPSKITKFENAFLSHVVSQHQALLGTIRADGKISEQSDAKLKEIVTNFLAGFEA
UniProt P27824, residues 21-592: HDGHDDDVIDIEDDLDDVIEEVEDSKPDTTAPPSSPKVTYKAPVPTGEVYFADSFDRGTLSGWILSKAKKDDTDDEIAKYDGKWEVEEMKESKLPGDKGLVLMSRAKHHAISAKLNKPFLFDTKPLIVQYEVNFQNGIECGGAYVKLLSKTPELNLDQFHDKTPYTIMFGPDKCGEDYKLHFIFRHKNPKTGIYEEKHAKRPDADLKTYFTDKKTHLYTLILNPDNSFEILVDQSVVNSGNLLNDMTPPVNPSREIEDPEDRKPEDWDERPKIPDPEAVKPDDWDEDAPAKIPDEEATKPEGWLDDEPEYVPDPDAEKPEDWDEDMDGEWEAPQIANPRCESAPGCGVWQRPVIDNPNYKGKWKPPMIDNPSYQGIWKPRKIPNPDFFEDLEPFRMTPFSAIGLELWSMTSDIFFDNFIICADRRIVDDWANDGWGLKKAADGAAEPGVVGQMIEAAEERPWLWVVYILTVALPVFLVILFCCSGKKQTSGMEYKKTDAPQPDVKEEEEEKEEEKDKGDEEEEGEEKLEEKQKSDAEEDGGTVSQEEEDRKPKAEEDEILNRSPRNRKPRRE
UniProt O75381: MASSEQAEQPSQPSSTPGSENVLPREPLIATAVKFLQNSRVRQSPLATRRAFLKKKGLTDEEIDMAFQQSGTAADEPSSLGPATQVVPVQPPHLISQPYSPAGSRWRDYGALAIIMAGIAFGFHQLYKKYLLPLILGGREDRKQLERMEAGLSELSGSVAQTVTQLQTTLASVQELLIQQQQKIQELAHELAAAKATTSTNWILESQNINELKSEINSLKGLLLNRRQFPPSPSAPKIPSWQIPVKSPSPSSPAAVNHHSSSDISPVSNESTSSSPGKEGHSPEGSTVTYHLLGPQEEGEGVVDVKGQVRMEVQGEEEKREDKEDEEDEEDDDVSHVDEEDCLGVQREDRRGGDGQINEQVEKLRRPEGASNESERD

B1: GM130 (protein, UniProt Q08379 1-1002)
chain: MWPQPRLPPRPAMSEETRQSKLAAAKKKLREYQQRNSPGVPTGAKKKKKIKNGSNPETTTSGGCHSPEDTPKDNAATLQPSDDTVLPGGVPSPGASLTSMAASQNHDADNVPNLMDETKTFSSTESLRQLSQQLNGLVCESATCVNGEGPASSANLKDLESRYQQLAVALDSSYVTNKQLNITIEKLKQQNQEITDQLEEEKKECHQKQGALREQLQVHIQTIGILVSEKAELQTALAHTQHAARQKEGESEDLASRLQYSRRRVGELERALSAVSTQQKKADRYNKELTKERDALRLELYKNTQSNEDLKQEKSELEEKLRVLVTEKAGMQLNLEELQKKLEMTELLLQQFSSRCEAPDANQQLQQAMEERAQLEAHLGQVMESVRQLQMERDKYAENLKGESAMWRQRMQQMSEQVHTLREEKECSMSRVQELETSLAELRNQMAEPPPPEPPAGPSEVEQQLQAEAEHLRKELEGLAGQLQAQVQDNEGLSRLNREQEERLLELERAAELWGEQAEARRQILETMQNDRTTISRALSQNRELKEQLAELQSGFVKLTNENMEITSALQSEQHVKRELGKKLGELQEKLSELKETVELKSQEAQSLQQQRDQYLGHLQQYVAAYQQLTSEKEVLHNQLLLQTQLVDQLQQQEAQGKAVAEMARQELQETQERLEAATQQNQQLRAQLSLMAHPGEGDGLDREEEEDEEEEEEEAVAVPQPMPSIPEDLESREAMVAFFNSAVASAEEEQARLRGQLKEQRVRCRRLAHLLASAQKEPEAAAPAPGTGGDSVCGETHRALQGAMEKLQSRFMELMQEKADLKERVEELEHRCIQLSGETDTIGEYIALYQSQRAVLKERHREKEEYISRLAQDKEEMKVKLLELQELVLRLVGDRNEWHGRFLAAAQNPADEPTSGAPAPQELGAANQQGDLCEVSLAGSVEPAQGEAREGSPRDNPTAQQIMQLLREMQNPRERPGLGSNPCIPFFYRADENDEVKITVI
B2: HXK2 (protein, UniProt P52789 1-917)
chain: MIASHLLAYFFTELNHDQVQKVDQYLYHMRLSDETLLEISKRFRKEMEKGLGATTHPTAAVKMLPTFVRSTPDGTEHGEFLALDLGGTNFRVLWVKVTDNGLQKVEMENQIYAIPEDIMRGSGTQLFDHIAECLANFMDKLQIKDKKLPLGFTFSFPCHQTKLDESFLVSWTKGFKSSGVEGRDVVALIRKAIQRRGDFDIDIVAVVNDTVGTMMTCGYDDHNCEIGLIVGTGSNACYMEEMRHIDMVEGDEGRMCINMEWGAFGDDGSLNDIRTEFDQEIDMGSLNPGKQLFEKMISGMYMGELVRLILVKMAKEELLFGGKLSPELLNTGRFETKDISDIEGEKDGIRKAREVLMRLGLDPTQEDCVATHRICQIVSTRSASLCAATLAAVLQRIKENKGEERLRSTIGVDGSVYKKHPHFAKRLHKTVRRLVPGCDVRFLRSEDGSGKGAAMVTAVAYRLADQHRARQKTLEHLQLSHDQLLEVKRRMKVEMERGLSKETHASAPVKMLPTYVCATPDGTEKGDFLALDLGGTNFRVLLVRVRNGKWGGVEMHNKIYAIPQEVMHGTGDELFDHIVQCIADFLEYMGMKGVSLPLGFTFSFPCQQNSLDESILLKWTKGFKASGCEGEDVVTLLKEAIHRREEFDLDVVAVVNDTVGTMMTCGFEDPHCEVGLIVGTGSNACYMEEMRNVELVEGEEGRMCVNMEWGAFGDNGCLDDFRTEFDVAVDELSLNPGKQRFEKMISGMYLGEIVRNILIDFTKRGLLFRGRISERLKTRGIFETKFLSQIESDCLALLQVRAILQHLGLESTCDDSIIVKEVCTVVARRAAQLCGAGMAAVVDRIRENRGLDALKVTVGVDGTLYKLHPHFAKVMHETVKDLAPKCDVSFLQSEDGSGKGAALITAVACRIREAGQR
B3: BCAP31 (protein, UniProt P51572 1-246)
chain: MSLQWTAVATFLYAEVFVVLLLCIPFISPKRWQKIFKSRLVELLVSYGNTFFVVLIVILVLLVIDAVREIRKYDDVTEKVNLQNNPGAMEHFHMKLFRAQRNLYIAGFSLLLSFLLRRLVTLISQQATLLASNEAFKKQAESASEAAKKYMEENDQLKKGAAVDGGKLDVGNAEVKLEEENRSLKADLQKLKDELASTKQKLEKAENQVLAMRKQSEGLTKEYDRLLEEHAKLQAAVDGPMDKKEE

The first assay addresses T1, V5-tagged APOL1-G0 fused to turboID (human) (UniProt O14791).
T1 sequence: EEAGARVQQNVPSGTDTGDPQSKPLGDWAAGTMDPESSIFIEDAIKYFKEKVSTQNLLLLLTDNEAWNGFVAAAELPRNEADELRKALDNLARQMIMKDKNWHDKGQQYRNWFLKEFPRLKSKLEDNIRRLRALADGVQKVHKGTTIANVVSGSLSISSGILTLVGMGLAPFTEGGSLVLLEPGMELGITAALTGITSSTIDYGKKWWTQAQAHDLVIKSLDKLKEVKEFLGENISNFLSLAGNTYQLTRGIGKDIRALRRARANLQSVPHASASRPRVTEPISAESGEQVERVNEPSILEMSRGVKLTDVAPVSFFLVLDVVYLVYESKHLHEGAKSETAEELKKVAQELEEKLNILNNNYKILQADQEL
In words: proximity labelling.
Regarding B1, the binding entry is recorded as “no binding”.
On the same count and under the same terms, the same measure for B2: “no binding”; for B3: “no binding”.

The next assay has as its target T1, V5-tagged APOL1-G0 fused to turboID (human). The assay is described as follows: proximity labelling. This is another data set of the same source.
On to ATP5A (from UniProt P25705 44-553), for which the binding result is reported as “binds”.
“RAB5 (human (endogenous in human podocytes))”: the binding entry is given as “no binding”.
As for Calnexin (from UniProt P27824 21-592), the binding result was “binds”.
In the case of PEX14 (from UniProt O75381 1-377), the binding result was “binds”.
